The record followed here is patent EP0085866A1, “Derivatives of benzo-1,2-thiazine-1,1-dioxide, a process for their preparation and pharmaceutical compositions containing the same” (priority 1982, dated 1983).

The data set concerns gastric mucosa. Put plainly: Gastrolesive activity (macroscopic control of the gastric mucosa). The class given is in vivo, Crl: CD(SD) male rats. Conditions: therapeutic index relative to piroxicam of the same session considered as 1. The source says: On the ground of such lines the calculation of UD3 values, that is a dose whereby a gastric lesion of the total extension of 3 mm is expected, has been performed.
As for `CN1C(C(=O)Nc2ccccn2)=C(OC(=O)C(C)(C)C)c2ccccc2S1(=O)=O` [CHF 1021, 4-Pivaloyloxy-2-methyl-2H-1,2-benzothiazine-3-[N-(2-pyridyl)-carboxamide]-1,1-dioxide], the Relative therapeutic index worked out at 10.25.

Molecule `CN1C(C(=O)Nc2nccs2)=C(OC(=O)C(C)(C)C)c2ccccc2S1(=O)=O` [CHF 1047, 4-pivaloyloxy-2-methyl-2H-1,2-benzothiazine-3-[N-(2-thiazolyl)-carboxamide]-1,1-dioxide] showed a Relative therapeutic index of 0.07.

In the case of `CCCCC(=O)OC1=C(C(=O)Nc2ccccn2)N(C)S(=O)(=O)c2ccccc21` [CHF 1109], the Relative therapeutic index is recorded as 1.43.

For `CCCC(=O)OC1=C(C(=O)Nc2ccccn2)N(C)S(=O)(=O)c2ccccc21` [CHF 1115], the Relative therapeutic index was found to be 1.50.

`CN1C(C(=O)Nc2ccccn2)=C(O)c2ccccc2S1(=O)=O` [piroxicam, reference compound] returned a Relative therapeutic index of 1.
